Test results taken from the supplement of paper PMC12823440, “Inhibitors supercharge kinase turnover through native proteolytic circuits” (Nature, 2025).
Where a name gives a salt, the structure may show the parent alone. This is one part of the list. The calls rarely recur for the same compound in another form.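 In K562 cells expressing nanoluciferase-fused kinases, luminescence was recorded at 4 h intervals between 2 and 18 h, normalized as percent of control with DMSO at 100% and a positive control at 0%. A significant (2 sigma) signal drop marks a time point as decreased. The authors' rule for a hit is not shown and takes in more than the number of time points.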

By UniProt entry, the sequences of proteins in these tests, tags left out. Where a name states a change or a piece, a line headed by the entry shows the natural chain unless it says otherwise.
UniProt Q16288, whole entry, looked up: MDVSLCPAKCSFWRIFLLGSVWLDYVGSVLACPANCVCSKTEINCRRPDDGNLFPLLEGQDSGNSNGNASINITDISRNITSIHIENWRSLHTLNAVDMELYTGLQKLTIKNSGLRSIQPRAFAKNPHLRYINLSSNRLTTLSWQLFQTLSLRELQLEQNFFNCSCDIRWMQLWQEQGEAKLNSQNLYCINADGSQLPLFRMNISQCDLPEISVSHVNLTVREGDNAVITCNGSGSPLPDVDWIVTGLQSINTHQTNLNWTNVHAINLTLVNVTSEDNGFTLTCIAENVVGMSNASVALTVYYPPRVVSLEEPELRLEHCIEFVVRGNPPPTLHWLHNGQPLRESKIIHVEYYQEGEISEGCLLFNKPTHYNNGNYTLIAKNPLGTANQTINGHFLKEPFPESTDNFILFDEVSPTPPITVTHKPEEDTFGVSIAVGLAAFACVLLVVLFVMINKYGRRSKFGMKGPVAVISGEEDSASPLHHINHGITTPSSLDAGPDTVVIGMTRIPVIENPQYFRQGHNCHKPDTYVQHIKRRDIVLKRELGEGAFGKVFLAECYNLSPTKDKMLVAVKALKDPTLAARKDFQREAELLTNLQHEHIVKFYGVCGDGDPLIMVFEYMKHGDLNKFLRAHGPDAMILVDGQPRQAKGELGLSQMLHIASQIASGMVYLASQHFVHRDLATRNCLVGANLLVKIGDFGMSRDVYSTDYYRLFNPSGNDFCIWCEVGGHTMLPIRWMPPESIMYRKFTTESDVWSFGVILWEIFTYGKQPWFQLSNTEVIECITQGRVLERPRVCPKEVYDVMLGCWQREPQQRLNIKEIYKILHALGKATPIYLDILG
UniProt O96013: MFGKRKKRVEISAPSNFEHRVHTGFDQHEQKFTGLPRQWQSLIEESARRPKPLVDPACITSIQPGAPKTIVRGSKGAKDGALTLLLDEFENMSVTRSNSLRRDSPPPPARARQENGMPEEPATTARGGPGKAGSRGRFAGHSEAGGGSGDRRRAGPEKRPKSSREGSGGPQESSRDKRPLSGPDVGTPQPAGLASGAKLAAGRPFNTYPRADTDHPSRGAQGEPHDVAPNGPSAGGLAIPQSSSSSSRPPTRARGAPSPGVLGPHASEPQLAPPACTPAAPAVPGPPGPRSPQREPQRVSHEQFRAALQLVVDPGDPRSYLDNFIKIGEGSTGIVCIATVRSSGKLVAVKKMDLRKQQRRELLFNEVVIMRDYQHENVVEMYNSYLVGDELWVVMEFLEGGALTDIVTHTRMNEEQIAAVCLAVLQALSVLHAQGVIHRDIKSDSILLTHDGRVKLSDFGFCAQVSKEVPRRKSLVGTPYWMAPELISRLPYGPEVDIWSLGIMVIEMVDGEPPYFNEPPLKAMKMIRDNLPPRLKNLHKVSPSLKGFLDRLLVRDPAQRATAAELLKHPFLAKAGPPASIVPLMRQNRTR
UniProt Q96KB5: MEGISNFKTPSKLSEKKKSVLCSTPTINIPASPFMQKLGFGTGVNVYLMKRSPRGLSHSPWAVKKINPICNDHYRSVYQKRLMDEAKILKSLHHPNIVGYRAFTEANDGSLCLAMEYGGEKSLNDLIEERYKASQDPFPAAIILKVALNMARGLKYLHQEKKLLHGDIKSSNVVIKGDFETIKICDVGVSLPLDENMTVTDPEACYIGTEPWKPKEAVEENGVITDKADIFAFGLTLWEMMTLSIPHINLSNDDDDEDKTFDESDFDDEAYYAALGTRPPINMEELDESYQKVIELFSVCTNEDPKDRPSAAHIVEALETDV
UniProt Q15118, whole entry, looked up: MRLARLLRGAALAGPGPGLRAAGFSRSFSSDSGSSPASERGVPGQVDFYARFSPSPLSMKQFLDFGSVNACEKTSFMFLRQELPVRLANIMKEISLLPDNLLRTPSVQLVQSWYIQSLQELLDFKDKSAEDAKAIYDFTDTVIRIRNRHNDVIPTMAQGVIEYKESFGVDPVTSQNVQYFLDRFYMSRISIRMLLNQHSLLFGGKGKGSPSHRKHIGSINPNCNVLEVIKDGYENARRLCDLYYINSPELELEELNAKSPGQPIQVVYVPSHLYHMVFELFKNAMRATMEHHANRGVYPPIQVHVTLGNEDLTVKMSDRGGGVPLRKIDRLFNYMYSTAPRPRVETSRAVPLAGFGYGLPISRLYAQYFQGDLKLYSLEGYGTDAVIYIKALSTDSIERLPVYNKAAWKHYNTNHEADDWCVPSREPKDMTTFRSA
UniProt P42356, whole entry, looked up: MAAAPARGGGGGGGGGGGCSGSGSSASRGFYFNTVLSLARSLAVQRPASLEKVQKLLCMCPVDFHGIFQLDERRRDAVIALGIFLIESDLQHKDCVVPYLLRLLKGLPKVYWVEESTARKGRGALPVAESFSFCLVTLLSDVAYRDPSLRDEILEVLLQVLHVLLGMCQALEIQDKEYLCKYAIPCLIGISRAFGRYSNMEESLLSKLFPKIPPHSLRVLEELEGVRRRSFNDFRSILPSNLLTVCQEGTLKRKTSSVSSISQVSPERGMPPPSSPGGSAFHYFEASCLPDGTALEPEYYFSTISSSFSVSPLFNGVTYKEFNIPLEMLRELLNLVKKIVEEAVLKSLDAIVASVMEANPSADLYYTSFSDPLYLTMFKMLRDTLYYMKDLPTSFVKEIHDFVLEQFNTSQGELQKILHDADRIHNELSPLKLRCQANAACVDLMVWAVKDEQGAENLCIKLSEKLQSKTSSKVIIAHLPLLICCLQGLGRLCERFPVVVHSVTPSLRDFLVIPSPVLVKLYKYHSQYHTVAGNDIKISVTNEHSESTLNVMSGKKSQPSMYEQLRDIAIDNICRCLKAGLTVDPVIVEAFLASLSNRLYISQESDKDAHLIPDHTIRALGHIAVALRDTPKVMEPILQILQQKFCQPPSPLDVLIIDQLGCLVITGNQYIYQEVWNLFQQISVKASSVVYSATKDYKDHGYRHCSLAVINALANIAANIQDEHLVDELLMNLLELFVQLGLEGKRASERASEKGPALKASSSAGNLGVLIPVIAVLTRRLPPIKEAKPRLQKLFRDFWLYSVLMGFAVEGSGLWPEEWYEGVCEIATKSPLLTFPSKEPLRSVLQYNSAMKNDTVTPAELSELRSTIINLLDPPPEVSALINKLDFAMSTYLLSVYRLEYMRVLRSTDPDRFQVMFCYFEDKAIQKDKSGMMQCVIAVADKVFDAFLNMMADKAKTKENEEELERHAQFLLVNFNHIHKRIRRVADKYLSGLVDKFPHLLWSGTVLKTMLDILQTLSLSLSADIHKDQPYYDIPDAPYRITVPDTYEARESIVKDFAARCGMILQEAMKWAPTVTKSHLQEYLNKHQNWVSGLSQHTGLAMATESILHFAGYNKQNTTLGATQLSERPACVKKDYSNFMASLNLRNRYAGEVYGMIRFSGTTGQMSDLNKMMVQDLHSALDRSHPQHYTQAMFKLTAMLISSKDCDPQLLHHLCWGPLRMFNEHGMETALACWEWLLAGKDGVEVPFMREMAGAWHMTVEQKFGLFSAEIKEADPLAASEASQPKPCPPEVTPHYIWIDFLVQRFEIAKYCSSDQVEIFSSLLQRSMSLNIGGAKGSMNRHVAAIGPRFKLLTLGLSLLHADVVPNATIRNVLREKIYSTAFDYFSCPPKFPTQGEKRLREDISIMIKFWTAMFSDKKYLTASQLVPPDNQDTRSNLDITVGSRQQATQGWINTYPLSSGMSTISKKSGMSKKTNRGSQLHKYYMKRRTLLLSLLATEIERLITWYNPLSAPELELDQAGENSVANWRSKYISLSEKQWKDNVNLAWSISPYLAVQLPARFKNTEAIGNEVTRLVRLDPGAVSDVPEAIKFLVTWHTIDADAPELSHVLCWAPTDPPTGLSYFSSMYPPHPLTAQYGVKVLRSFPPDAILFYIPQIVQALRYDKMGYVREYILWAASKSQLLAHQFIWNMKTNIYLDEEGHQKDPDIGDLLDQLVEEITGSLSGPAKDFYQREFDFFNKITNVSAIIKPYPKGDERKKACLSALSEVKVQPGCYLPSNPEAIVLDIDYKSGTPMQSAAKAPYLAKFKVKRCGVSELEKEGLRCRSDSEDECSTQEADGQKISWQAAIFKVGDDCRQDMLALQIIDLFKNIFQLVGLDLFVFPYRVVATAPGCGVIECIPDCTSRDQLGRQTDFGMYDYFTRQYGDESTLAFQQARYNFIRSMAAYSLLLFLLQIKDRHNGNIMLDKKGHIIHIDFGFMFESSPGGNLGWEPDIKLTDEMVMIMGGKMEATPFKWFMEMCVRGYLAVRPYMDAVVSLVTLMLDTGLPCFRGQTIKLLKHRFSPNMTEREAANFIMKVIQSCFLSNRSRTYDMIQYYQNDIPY
UniProt Q9UBF8: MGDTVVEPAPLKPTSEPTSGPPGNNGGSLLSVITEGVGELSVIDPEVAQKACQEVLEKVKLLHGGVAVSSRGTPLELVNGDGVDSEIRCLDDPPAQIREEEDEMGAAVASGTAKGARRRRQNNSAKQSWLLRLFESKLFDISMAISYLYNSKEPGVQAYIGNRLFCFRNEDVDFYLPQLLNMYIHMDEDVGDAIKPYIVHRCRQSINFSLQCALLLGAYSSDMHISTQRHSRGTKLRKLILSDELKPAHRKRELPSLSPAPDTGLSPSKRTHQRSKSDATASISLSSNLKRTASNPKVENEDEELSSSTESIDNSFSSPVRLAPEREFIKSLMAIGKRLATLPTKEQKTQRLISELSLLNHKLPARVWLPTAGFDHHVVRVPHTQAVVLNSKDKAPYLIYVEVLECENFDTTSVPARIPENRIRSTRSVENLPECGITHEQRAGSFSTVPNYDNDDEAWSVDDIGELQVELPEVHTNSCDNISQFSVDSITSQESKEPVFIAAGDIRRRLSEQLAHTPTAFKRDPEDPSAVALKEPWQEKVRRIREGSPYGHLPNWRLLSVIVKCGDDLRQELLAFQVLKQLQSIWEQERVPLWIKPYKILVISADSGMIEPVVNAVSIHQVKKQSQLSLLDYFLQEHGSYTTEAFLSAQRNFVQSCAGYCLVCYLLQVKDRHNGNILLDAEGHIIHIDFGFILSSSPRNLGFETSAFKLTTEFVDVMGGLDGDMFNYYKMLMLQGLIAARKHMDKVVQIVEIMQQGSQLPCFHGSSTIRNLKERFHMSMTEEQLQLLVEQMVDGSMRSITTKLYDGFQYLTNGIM
UniProt P53350, whole entry: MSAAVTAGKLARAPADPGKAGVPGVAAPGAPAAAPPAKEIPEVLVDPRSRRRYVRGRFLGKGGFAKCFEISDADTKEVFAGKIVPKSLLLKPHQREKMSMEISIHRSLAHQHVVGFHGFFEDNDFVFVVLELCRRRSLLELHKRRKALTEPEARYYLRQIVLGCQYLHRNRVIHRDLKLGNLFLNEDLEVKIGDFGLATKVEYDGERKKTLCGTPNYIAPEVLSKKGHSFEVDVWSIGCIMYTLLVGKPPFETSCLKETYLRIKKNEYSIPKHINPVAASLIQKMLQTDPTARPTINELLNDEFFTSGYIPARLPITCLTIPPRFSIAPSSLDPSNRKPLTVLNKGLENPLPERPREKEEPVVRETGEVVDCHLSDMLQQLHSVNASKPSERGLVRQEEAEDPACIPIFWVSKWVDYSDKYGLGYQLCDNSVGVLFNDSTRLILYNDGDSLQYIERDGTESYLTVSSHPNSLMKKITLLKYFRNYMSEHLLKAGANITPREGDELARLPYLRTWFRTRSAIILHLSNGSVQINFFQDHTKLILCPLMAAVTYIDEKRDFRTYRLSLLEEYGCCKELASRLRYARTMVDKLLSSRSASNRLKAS
UniProt Q13131: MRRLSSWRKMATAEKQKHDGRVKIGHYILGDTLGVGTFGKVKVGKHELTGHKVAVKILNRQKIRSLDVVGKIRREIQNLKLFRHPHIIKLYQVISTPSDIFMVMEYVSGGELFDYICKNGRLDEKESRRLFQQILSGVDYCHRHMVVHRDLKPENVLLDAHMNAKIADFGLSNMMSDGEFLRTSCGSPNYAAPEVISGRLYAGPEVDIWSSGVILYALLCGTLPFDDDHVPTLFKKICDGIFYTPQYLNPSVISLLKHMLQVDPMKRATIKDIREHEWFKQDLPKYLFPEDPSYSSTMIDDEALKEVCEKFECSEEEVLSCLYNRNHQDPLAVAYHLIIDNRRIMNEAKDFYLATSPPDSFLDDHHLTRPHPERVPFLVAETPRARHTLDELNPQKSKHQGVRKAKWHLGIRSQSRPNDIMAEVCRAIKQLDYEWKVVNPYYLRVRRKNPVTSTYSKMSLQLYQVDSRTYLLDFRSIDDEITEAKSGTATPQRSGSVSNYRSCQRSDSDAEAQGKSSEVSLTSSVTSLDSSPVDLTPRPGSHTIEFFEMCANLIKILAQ

Key:
Assay in all cases: number of time points (of 5) at which kinase-Nluc abundance scored as decreased, DMSO-normalised (count); higher = more persistent destabilization
Conditions in all cases: K562; 2-18 h
NTRK3 = NTRK3 (UniProt Q16288)
PAK4 = PAK4 (UniProt O96013)
PBK = PBK (UniProt Q96KB5)
PDGFRB = PDGFRB (UniProt P09619)
PDK1 = PDK1 (UniProt Q15118)
PDPK1 = PDPK1 (UniProt O15530)
PIK4CA = PIK4CA (UniProt P42356)
PIK4CB = PIK4CB (UniProt Q9UBF8)
PLK1 = PLK1 (UniProt P53350)
PRKAA1 = PRKAA1 (UniProt Q13131)

Row | Compound | number of time points (NTRK3) | number of time points (PAK4) | number of time points (PBK) | number of time points (PDGFRB) | number of time points (PDK1) | number of time points (PDPK1) | number of time points (PIK4CA) | number of time points (PIK4CB) | number of time points (PLK1) | number of time points (PRKAA1)
1 | CCn1c(N)c(C(=O)NC)c(=O)c2ccc(C#CC(C)(O)COC)nc21 (configuration not stated) (10 µM) | 0 | 0 | 0 | 0 | 0 | 0 | 0 | 0 | 0 | 0
2 | N#C/C(=C/c1ccc(O)c(O)c1)C(=O)N1CCc2ccccc21 [Tyrphostin AG 528] (10 µM) | 0 | 0 | 0 | 0 | 0 | 0 | 0 | 0 | 0 | 0
3 | Fc1ccc(-c2nc3n(c2-c2ccncc2)CCS3)cc1 (10 µM) | 0 | 0 | 0 | 0 | 0 | 0 | 0 | 0 | 0 | 0
4 | O=C(COc1ccc(Cl)cc1)NC1CCC(NC(=O)COc2ccc(Cl)cc2)CC1 (stereo not drawn) [ISRIB (trans-isomer)] (10 µM) | 0 | 0 | 0 | 0 | 0 | 0 | 0 | 0 | 0 | 0
5 | Nc1ccc(O)c(C(=O)O)c1 [5-Aminosalicylic Acid] (10 µM) | 0 | 0 | 0 | 0 | 0 | 0 | 0 | 0 | 0 | 0
6 | CN(C[C@@H]1COCCO1)S(=O)(=O)Nc1ccc2ccc3ncc(-c4cnn(C)c4)cc3c(=O)c2c1 (2.5 µM) | 0 | 0 | 0 | 0 | 0 | 0 | 0 | 0 | 0 | 0
7 | CO/N=C1/C(c2c(O)[nH]c3cc(Cl)c(Cl)cc23)=Nc2ccccc21 (10 µM) | 0 | 0 | 0 | 0 | 0 | 0 | 0 | 0 | 0 | 0
8 | O=C(Nc1ccnc(NC(=O)C2CC2)c1)c1c(Cl)cccc1Cl (10 µM) | 0 | 0 | 0 | 0 | 0 | 1 | 0 | 0 | 0 | 0
9 | N=C(NC(=N)N1CCCC1)Nc1ccc(OC(F)(F)F)cc1 (10 µM) | 0 | 0 | 0 | 0 | 0 | 0 | 0 | 0 | 0 | 0
10 | O=C1Cc2ccccc2N1 [Oxindole] (10 µM) | 0 | 0 | 0 | 0 | 0 | 0 | 0 | 0 | 0 | 0
11 | CN(C)c1ccc(/C=C2\C(=O)Nc3ccccc32)c2ccccc12 (10 µM) | 0 | 0 | 0 | 0 | 0 | 0 | 0 | 0 | 0 | 0
12 | CS[C@@]1(C(=O)Nc2ccc3[nH]nc(-c4ccc(OC(C)C)nc4)c3c2)CCN(CC(=O)N2CC=C(c3ccc(-c4ncn(C)n4)cc3)CC2)C1 (2.5 µM) | 0 | 0 | 0 | 0 | 0 | 0 | 0 | 0 | 0 | 0
13 | Cc1ccc2c(NS(=O)(=O)c3ccccc3Cl)cccc2c1Oc1ncccc1-c1ccnc(N[C@H]2CCCNC2)n1 (2.5 µM) | 0 | 0 | 0 | 0 | 0 | 0 | 0 | 0 | 0 | 0
14 | O=C1OC(COc2ccccc2[N+](=O)[O-])CC1Cc1ccccc1 (configuration not stated) (10 µM) | 0 | 0 | 0 | 0 | 0 | 0 | 0 | 0 | 0 | 0
15 | NC(=O)c1c(NC(=O)C2CC2)sc2c1CCCC2 (10 µM) | 0 | 0 | 0 | 0 | 0 | 0 | 0 | 0 | 0 | 0
16 | COc1c(Nc2ncc(Cl)c(N[C@H]3[C@@H](C(N)=O)[C@@H]4C=C[C@H]3C4)n2)ccc2c1CC[C@@H](N1CCOCC1)CC2 (10 µM) | 0 | 0 | 0 | 0 | 0 | 0 | 0 | 0 | 0 | 0
17 | COc1cc(Nc2ccnc3ccc(Br)cc23)cc(OC)c1OC (2.5 µM) | 0 | 0 | 0 | 0 | 0 | 0 | 0 | 0 | 0 | 0
18 | S=C(NCc1ccc2c(c1)OCO2)N1CCN(c2ncnc3c2oc2ccccc23)CC1 [Amuvatinib] (2.5 µM) | 0 | 0 | 0 | 0 | 0 | 0 | 0 | 0 | 0 | 0
19 | COc1ccc(Cl)cc1N(CC(=O)Nc1ccc2c(c1)OCO2)S(=O)(=O)c1ccccc1 (2.5 µM) | 0 | 0 | 0 | 0 | 0 | 0 | 0 | 0 | 0 | 0

Row | Compound | number of time points (NTRK3) | number of time points (PAK4) | number of time points (PBK) | number of time points (PDGFRB) | number of time points (PDK1) | number of time points (PDPK1) | number of time points (PIK4CA) | number of time points (PIK4CB) | number of time points (PLK1) | number of time points (PRKAA1)
20 | CC1(C)CN(C(=O)c2ccc(-c3cccc4nc(NC(=O)C5CC5)nn34)cc2)C1 [Solcitinib] (10 µM) | 0 | 0 | 0 | 0 | 0 | 0 | 0 | 0 | 0 | 0
21 | O=C(O)c1c[nH]c2cc(Cl)c(-c3ccc(C4(O)CCC4)cc3)cc12 (10 µM) | 0 | 0 | 0 | 0 | 0 | 0 | 0 | 0 | 0 | –
22 | O=C1C=CC2=C3c4cc(O)c(O)cc4CC3(O)COC2=C1O (configuration not stated) [Hematein] (10 µM) | 0 | 0 | 0 | 0 | 0 | 0 | 0 | 0 | 0 | 0
23 | Cc1cncc2cccc(S(=O)(=O)N3CCCNC[C@@H]3C)c12 [H-1152 (dihydrochloride)] (10 µM) | 0 | 0 | 0 | 0 | 0 | 0 | 0 | 0 | 0 | 0
24 | Cn1cc(C2=C(c3ccc(Cl)cc3Cl)C(=O)NC2=O)c2ccccc21 (10 µM) | 0 | 0 | 0 | 0 | 0 | 0 | 0 | 0 | 0 | 0
25 | O=c1cc(N2CCOCC2)oc2c(-c3cccc4c3sc3ccccc34)cccc12 (10 µM) | 0 | 0 | 0 | 0 | 0 | 0 | 0 | 0 | 0 | 0
26 | CNCc1cc(Oc2ccc3c(ccn3C(=O)Nc3cc(C(F)(F)F)n(C)n3)c2)ncn1 [Acrizanib] (10 µM) | 0 | 0 | 0 | 0 | 0 | 0 | 0 | 0 | 0 | 0
27 | Cc1cccc(CC(=O)N2CCc3c2ccc(-c2cn(C)c4ncnc(N)c24)c3F)n1 (10 µM) | 0 | 0 | 0 | 0 | 0 | 0 | 0 | 0 | 0 | 0
28 | O=C(C#Cc1ccccc1)c1cccc([N+](=O)[O-])c1 (10 µM) | 0 | 0 | 0 | 0 | 0 | 0 | 0 | 0 | 0 | 0
29 | CO[C@]1(C(=O)N[C@@H](C)c2ccc(-n3cc(F)cn3)nc2)CC[C@H](c2nc(C)cc(Nc3cc(C)[nH]n3)n2)CC1 [Pralsetinib] (10 µM) | 0 | 0 | 0 | 0 | 0 | 0 | 0 | 0 | 0 | 0
30 | C[C@@H]1CN(Cc2ccc(F)cc2)[C@@H](C)CN1C(=O)c1cc2c(C(=O)C(=O)N(C)C)cn(C)c2cc1Cl [Talmapimod] (10 µM) | 0 | 0 | 0 | 0 | 0 | 0 | 0 | 0 | 0 | 0
31 | CCC[C@H](C)Oc1nc(N)c2[nH]c(=O)n(CCCCCN3CCCCC3)c2n1 (10 µM) | 0 | 0 | 0 | 0 | 0 | 0 | 0 | 0 | 0 | 0
32 | CC(C)(CCCCCC(O)CCCCCC(C)(C)C(=O)O)C(=O)O [Bempedoic acid] (10 µM) | 0 | 0 | 0 | 0 | 0 | 0 | 0 | 0 | 0 | 0
33 | CCCCNc1ncc2c(-c3ccc(F)cc3)nn(CC3CCC(N)CC3)c2n1 (configuration not stated) (2.5 µM) | 0 | 0 | 0 | 0 | 0 | 0 | 0 | 0 | 0 | 0
34 | COc1ccc(CN2CCC(c3ccc4nc(C(=O)N5CCN(Cc6ccc(C(F)(F)F)cc6)CC5)[nH]c4c3)CC2)cn1 (2.5 µM) | 1 | 0 | 0 | 0 | 0 | 0 | 0 | 0 | 0 | –
35 | Cn1cc(-c2nc(N[C@@H]3CCCC[C@@H]3N)c(F)c3c2C(=O)NC3)cn1 [TAK-659 (hydrochloride)] (2 µM) | 0 | 0 | 0 | 0 | 0 | 0 | 0 | 0 | 0 | 0
36 | COc1c(O)cc(O)c2c(=O)cc(-c3ccccc3)oc12 [Wogonin] (10 µM) | 0 | 0 | 0 | 0 | 0 | 0 | 0 | 0 | 0 | 0
37 | CC(C)=CCC[C@](C)(O[C@@H]1O[C@H](CO[C@@H]2O[C@H](CO)[C@@H](O)[C@H](O)[C@H]2O)[C@@H](O)[C@H](O)[C@H]1O)[C@H]1CC[C@]2(C)[C@@H]1[C@H](O)C[C@@H]1[C@@]3(C)CC[C@H](O[C@@H]4O[C@H](CO)[C@@H](O)[C@H](O)[C@H]4O[C@@H]4O[C@H](CO)[C@@H](O)[C@H](O)[C@H]4O)C(C)(C)[C@@H]3CC[C@]12C [Ginsenoside Rb1] (10 µM) | 0 | 0 | 0 | 0 | 0 | 0 | 0 | 0 | 0 | –

Some of these compounds in order of formula weight, largest number first.
Row | Compound | number of time points (NTRK3) | number of time points (PAK4) | number of time points (PBK) | number of time points (PDGFRB) | number of time points (PDK1) | number of time points (PDPK1) | number of time points (PIK4CA) | number of time points (PIK4CB) | number of time points (PLK1) | number of time points (PRKAA1)
25 | O=c1cc(N2CCOCC2)oc2c(-c3cccc4c3sc3ccccc34)cccc12 (10 µM) | 0 | 0 | 0 | 0 | 0 | 0 | 0 | 0 | 0 | 0
31 | CCC[C@H](C)Oc1nc(N)c2[nH]c(=O)n(CCCCCN3CCCCC3)c2n1 (10 µM) | 0 | 0 | 0 | 0 | 0 | 0 | 0 | 0 | 0 | 0
22 | O=C1C=CC2=C3c4cc(O)c(O)cc4CC3(O)COC2=C1O (configuration not stated) [Hematein] (10 µM) | 0 | 0 | 0 | 0 | 0 | 0 | 0 | 0 | 0 | 0
